{"source": "PubChem BioAssay AID686943 (Drosophila RNAi Screening Center, 2013)", "purpose": "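Fly genes whose loss alters ERK activation after insulin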 (primary screen)", "system": "Drosophila S2R+ haemocyte-like cells expressing YFP-tagged ERK (Rolled)", "reagents": "long dsRNA against Drosophila genes", "conditions": "insulin stimulation versus unstimulated cells; dose and duration not given", "detection": "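Per-plate z-scores of phospho-ERK immunostaining normalised to YFP-tagged ERK, measured with and without insulin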", "direction": "replicate 1, z-score of dpERK with insulin: higher = more active ERK per ERK-YFP after insulin", "note": "The deposit covers about 23,000 reagents; this is a random part of those that have a named target and a result. 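Extra replicates exist only for a retested subset of genes; insulin dose and duration not given; both raised and lowered dpERK matter.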 The numbers tell different reagents against one gene apart. Not all columns of the deposit are shown. Not given: the amount of reagent, the time to read-out."}
The first 2 records, ahead of the listing:
{"gene": "CG8249 (GeneID 36742)", "reagent no.": 1, "replicate 1, z-score of dpERK with insulin": 0.98}
{"gene": "CG45105 (GeneID 41932)", "reagent no.": 1, "replicate 1, z-score of dpERK with insulin": -0.73}

The listing, from the start:
{"gene": "CG8249 (GeneID 36742)", "reagent no.": 1, "replicate 1, z-score of dpERK with insulin": 0.98}
{"gene": "CG45105 (GeneID 41932)", "reagent no.": 1, "replicate 1, z-score of dpERK with insulin": -0.73}
{"gene": "CG45105 (GeneID 41932)", "reagent no.": 2, "replicate 1, z-score of dpERK with insulin": -0.98}
{"gene": "CG30283 (GeneID 37454)", "reagent no.": 1, "replicate 1, z-score of dpERK with insulin": 0.35}
{"gene": "sni (GeneID 31761)", "reagent no.": 1, "replicate 1, z-score of dpERK with insulin": 0.51}
{"gene": "CG6628 (GeneID 39183)", "reagent no.": 1, "replicate 1, z-score of dpERK with insulin": 0.27}
{"gene": "CG8388 (GeneID 36763)", "reagent no.": 1, "replicate 1, z-score of dpERK with insulin": -0.31}
{"gene": "CG9447 (GeneID 35597)", "reagent no.": 1, "replicate 1, z-score of dpERK with insulin": -1.11}
{"gene": "Smyd5 (GeneID 42517)", "reagent no.": 1, "replicate 1, z-score of dpERK with insulin": -0.42}
{"gene": "GC2 (GeneID 41449)", "reagent no.": 1, "replicate 1, z-score of dpERK with insulin": -0.19}
{"gene": "CG13218 (GeneID 36177)", "reagent no.": 1, "replicate 1, z-score of dpERK with insulin": 0.23}
{"gene": "Aduk (GeneID 41112)", "reagent no.": 1, "replicate 1, z-score of dpERK with insulin": 0.58}
{"gene": "Patr-1 (GeneID 42058)", "reagent no.": 1, "replicate 1, z-score of dpERK with insulin": -0.44}
{"gene": "CG5194 (GeneID 39037)", "reagent no.": 1, "replicate 1, z-score of dpERK with insulin": 0.19}
{"gene": "EloC (GeneID 37237)", "reagent no.": 1, "replicate 1, z-score of dpERK with insulin": 0.06}
{"gene": "CG1316 (GeneID 38526)", "reagent no.": 1, "replicate 1, z-score of dpERK with insulin": -0.2}
{"gene": "kibra (GeneID 41783)", "reagent no.": 1, "replicate 1, z-score of dpERK with insulin": 0.3}
{"gene": "kibra (GeneID 41783)", "reagent no.": 2, "replicate 1, z-score of dpERK with insulin": -1.12}
{"gene": "CG30369 (GeneID 246572)", "reagent no.": 1, "replicate 1, z-score of dpERK with insulin": -0.29}
{"gene": "E(spl)m6-BFM (GeneID 43159)", "reagent no.": 1, "replicate 1, z-score of dpERK with insulin": 0.38}
{"gene": "jim (GeneID 43924)", "reagent no.": 1, "replicate 1, z-score of dpERK with insulin": 0.29}
{"gene": "CG4267 (GeneID 33405)", "reagent no.": 1, "replicate 1, z-score of dpERK with insulin": -1.81}
{"gene": "CG4267 (GeneID 33405)", "reagent no.": 2, "replicate 1, z-score of dpERK with insulin": 0.34}
{"gene": "Sema2a (GeneID 36846)", "reagent no.": 1, "replicate 1, z-score of dpERK with insulin": -0.27}
{"gene": "CG10600 (GeneID 35142)", "reagent no.": 1, "replicate 1, z-score of dpERK with insulin": -0.32}
{"gene": "eEF1alpha2 (GeneID 43736)", "reagent no.": 1, "replicate 1, z-score of dpERK with insulin": -0.26}
{"gene": "eEF1alpha2 (GeneID 43736)", "reagent no.": 2, "replicate 1, z-score of dpERK with insulin": 1.18}
{"gene": "CG12811 (GeneID 41229)", "reagent no.": 1, "replicate 1, z-score of dpERK with insulin": 1.08}
{"gene": "Dronc (GeneID 39173)", "reagent no.": 1, "replicate 1, z-score of dpERK with insulin": -0.08}
{"gene": "lectin-37Db (GeneID 3346221)", "reagent no.": 1, "replicate 1, z-score of dpERK with insulin": -0.22}
{"gene": "LManIII (GeneID 34203)", "reagent no.": 1, "replicate 1, z-score of dpERK with insulin": 0.1}
